Test results published in PMC11984897.
These are yes or no findings as the source states them, for the method shown. In cells and extracts the contact can be indirect. Some binding calls cover weakened binding; strength is not graded here. Sequences can lack the tags named with a protein.

Amino acid sequences for entries named in this document (tags omitted).
UniProt P35222: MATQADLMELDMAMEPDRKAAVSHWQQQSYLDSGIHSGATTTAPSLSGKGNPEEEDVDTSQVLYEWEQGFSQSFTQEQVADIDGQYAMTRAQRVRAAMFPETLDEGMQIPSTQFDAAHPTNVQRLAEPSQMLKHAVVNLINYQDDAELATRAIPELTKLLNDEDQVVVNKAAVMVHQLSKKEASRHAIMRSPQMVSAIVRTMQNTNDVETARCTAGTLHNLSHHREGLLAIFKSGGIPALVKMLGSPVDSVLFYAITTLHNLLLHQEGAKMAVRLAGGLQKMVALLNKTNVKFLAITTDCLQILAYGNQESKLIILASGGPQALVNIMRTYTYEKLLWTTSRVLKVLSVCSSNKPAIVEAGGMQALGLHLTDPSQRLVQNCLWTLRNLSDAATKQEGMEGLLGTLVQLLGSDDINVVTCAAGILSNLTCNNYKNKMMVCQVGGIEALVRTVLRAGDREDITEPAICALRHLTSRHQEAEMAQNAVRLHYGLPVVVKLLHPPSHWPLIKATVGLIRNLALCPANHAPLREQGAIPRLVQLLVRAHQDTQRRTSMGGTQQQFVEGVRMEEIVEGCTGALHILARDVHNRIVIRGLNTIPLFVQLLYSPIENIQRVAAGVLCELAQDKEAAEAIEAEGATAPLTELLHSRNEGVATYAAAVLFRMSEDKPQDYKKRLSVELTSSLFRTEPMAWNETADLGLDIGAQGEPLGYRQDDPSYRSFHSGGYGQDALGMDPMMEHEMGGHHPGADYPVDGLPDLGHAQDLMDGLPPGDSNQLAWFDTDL

Molecular target: T1, FLAG-tagged HDAC7 (histone deacetylase 7) (UniProt Q8WUI4)
T1 sequence: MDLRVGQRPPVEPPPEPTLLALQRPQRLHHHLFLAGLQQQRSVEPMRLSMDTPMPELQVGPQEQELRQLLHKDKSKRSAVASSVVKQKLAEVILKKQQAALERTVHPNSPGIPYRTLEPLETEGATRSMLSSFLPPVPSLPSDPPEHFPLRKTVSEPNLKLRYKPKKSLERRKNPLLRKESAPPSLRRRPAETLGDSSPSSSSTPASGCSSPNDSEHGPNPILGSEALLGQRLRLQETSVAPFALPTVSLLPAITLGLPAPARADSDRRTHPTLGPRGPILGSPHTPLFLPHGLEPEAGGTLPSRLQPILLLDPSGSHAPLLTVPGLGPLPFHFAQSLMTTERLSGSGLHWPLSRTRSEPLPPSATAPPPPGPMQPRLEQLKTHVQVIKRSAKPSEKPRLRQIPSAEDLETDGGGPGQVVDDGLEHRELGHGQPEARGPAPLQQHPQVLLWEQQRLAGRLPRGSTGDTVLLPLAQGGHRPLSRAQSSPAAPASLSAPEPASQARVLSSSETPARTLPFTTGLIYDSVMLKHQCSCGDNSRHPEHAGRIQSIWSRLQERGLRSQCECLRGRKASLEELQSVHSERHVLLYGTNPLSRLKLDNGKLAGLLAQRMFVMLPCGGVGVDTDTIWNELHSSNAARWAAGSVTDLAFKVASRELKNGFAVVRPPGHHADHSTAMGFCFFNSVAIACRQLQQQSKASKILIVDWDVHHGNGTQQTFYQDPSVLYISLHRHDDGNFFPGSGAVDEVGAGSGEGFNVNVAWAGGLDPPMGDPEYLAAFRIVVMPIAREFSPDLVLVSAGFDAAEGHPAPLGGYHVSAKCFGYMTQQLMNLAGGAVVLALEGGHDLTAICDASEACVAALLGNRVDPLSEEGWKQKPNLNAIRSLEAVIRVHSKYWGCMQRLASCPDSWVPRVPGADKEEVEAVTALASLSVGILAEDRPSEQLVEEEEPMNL
Experiment: co-IP; lysate (1 mg) of NCI-H1688 and SW1271 cells transfected with FLAG-tagged HDAC7; Flag antibody (10 µg) and protein A/G magnetic beads overnight at 4 °C; western blotting for HDAC7 and β-catenin

With β-catenin (from UniProt P35222 1-781) the binding was “binds”.
